Laboratory results as given in the supplement of paper PMC4604168 (melanoma cell lines).
The other results are listed elsewhere or left out. Many values rest on one well or one pass, so single values are uncertain.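 Cells were imaged in 1,536-well plates, and nuclei stained with an antibody against cleaved PARP were counted against all DNA-stained nuclei to give the apoptosis fraction. Screening doses were chosen to leave most cells alive, and resting and induced cleaved-PARP levels differ strongly between cell lines.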

What was measured:
Assay in all cases: cleaved PARP positive nuclei fraction relative to DMSO control; melanoma cells; higher = more apoptosis
Conditions in all cases: library dose: low library concentration; 72 h
MZ2-MEL = system: MZ2-MEL
MeWo = system: MeWo
RPMI7951 = system: RPMI7951
RVH-421 = system: RVH-421
SkMel28 = system: SkMel28
SkMel2 = system: SkMel2
SkMel30 = system: SkMel30
UACC62 = system: UACC62

Compound	cleaved PARP positive nuclei fraction (MZ2-MEL)	cleaved PARP positive nuclei fraction (MeWo)	cleaved PARP positive nuclei fraction (RPMI7951)	cleaved PARP positive nuclei fraction (RVH-421)	cleaved PARP positive nuclei fraction (SkMel28)	cleaved PARP positive nuclei fraction (SkMel2)	cleaved PARP positive nuclei fraction (SkMel30)	cleaved PARP positive nuclei fraction (UACC62)
C[C@]1(O)C[C@@H](c2nc(-c3ccc4ccc(-c5ccccc5)nc4c3)c3c(N)nccn32)C1 + Cc1nc(Nc2ncc(C(=O)Nc3c(C)cccc3Cl)s2)cc(N2CCN(CCO)CC2)n1 [dasatanib] (first compound 0.4 µM, partner dose 0.004 µM)	108%	181%	172%	32.5%	197%	63.6%	86.5%	251%
Cn1sc(=O)n(Cc2ccccc2)c1=O + C[C@@H](Oc1cc(-c2cnn(C3CCNCC3)c2)cnc1N)c1c(Cl)ccc(F)c1Cl [Crizotinib] (first compound 0.4 µM, partner dose 0.2 µM)	38.6%	131%	124%	90.7%	39%	42%	32.1%	144%
C[C@@H](N)c1ccc(C(=O)Nc2ccnc3[nH]ccc23)cc1 + C[C@]1(O)C[C@@H](c2nc(-c3ccc4ccc(-c5ccccc5)nc4c3)c3c(N)nccn32)C1 [OSI906] (first compound 0.4 µM, partner dose 0.4 µM)	206%	124%	481%	329%	130%	73.5%	272%	595%
C[C@]1(O)C[C@@H](c2nc(-c3ccc4ccc(-c5ccccc5)nc4c3)c3c(N)nccn32)C1 + OCc1c[nH]c2ccccc12 [Indole-3-carbinol] (first compound 0.4 µM, partner dose 0.8 µM)	127%	42.7%	169%	50%	87.8%	156%	148%	131%
CCCCCCCCc1ccc(CCC(N)(CO)CO)cc1 [fingolimod] + C[C@]1(c2nc3c(C(N)=O)cccc3[nH]2)CCCN1 [Veliparib] (first compound 2 µM, partner dose 1.4 µM)	56.7%	73.3%	118%	127%	49.4%	130%	176%	218%
Cn1sc(=O)n(Cc2ccccc2)c1=O + C[C@]1(O)C[C@@H](c2nc(-c3ccc4ccc(-c5ccccc5)nc4c3)c3c(N)nccn32)C1 [OSI906] (first compound 0.4 µM, partner dose 0.4 µM)	111%	123%	123%	52.1%	84.8%	134%	35.6%	92%
C[C@]1(O)C[C@@H](c2nc(-c3ccc4ccc(-c5ccccc5)nc4c3)c3c(N)nccn32)C1 + O=C(O)[C@@H]1[O][Sb](=[O])([O][Sb]2(=[O])[O][C@H]([C@H](O)CO)[C@H](O)[C@H](C(=O)O)[O]2)[O][C@H]([C@H](O)CO)[C@@H]1O [stibogluconate] (first compound 0.4 µM, partner dose 2 µM)	83.4%	104%	102%	94%	40.2%	73.1%	35.2%	45.3%
C[C@]1(O)C[C@@H](c2nc(-c3ccc4ccc(-c5ccccc5)nc4c3)c3c(N)nccn32)C1 + CS(=O)(=O)CCNCc1ccc(-c2ccc3ncnc(Nc4ccc(OCc5cccc(F)c5)c(Cl)c4)c3c2)o1 [lapatinib] (first compound 0.4 µM, partner dose 0.8 µM)	33.9%	78.7%	102%	199%	79.5%	104%	26.4%	84.1%
CC(=O)O[C@@]12CO[C@@H]1C[C@H](O)[C@@]1(C)C(=O)[C@H](O)C3=C(C)[C@@H](OC(=O)[C@H](O)[C@@H](NC(=O)OC(C)(C)C)c4ccccc4)C[C@@](O)([C@@H](OC(=O)c4ccccc4)[C@H]21)C3(C)C [Docetaxel] + Nc1ncn([C@H]2C[C@H](O)[C@@H](CO)O2)c(=O)n1 [decitabine] (first compound 0.0001 µM, partner dose 0.1 µM)	645%	833%	103%	109%	222%	896%	290%	471%
COc1ccc(C2=N[C@@H](c3ccc(Cl)cc3)[C@@H](c3ccc(Cl)cc3)N2C(=O)N2CCNC(=O)C2)c(OC(C)C)c1 [Nutlin-3] + CCCCCCCCc1ccc(CCC(N)(CO)CO)cc1 [fingolimod] (first compound 0.1 µM, partner dose 2 µM)	220%	96.3%	101%	54.4%	93.8%	123%	124%	135%
Cn1sc(=O)n(Cc2ccccc2)c1=O + NC1(c2ccc(-c3nc4ccn5c(=O)[nH]nc5c4cc3-c3ccccc3)cc2)CCC1 [MK2206] (first compound 0.4 µM, partner dose 0.4 µM)	81.1%	54.7%	47%	49.9%	78.9%	46.1%	114%	182%
Cn1cnc2c(F)c(Nc3ccc(Br)cc3Cl)c(C(=O)NOCCO)cc21 [selumetinib] + Nc1ncn([C@H]2C[C@H](O)[C@@H](CO)O2)c(=O)n1 [decitabine] (first compound 0.015 µM, partner dose 0.1 µM)	497%	184%	288%	91.7%	91.1%	193%	61%	243%
Cn1cnc2c(F)c(Nc3ccc(Br)cc3Cl)c(C(=O)NOCCO)cc21 [selumetinib] + Nc1ccn([C@@H]2O[C@H](CO)[C@@H](O)C2(F)F)c(=O)n1 [gemcitabine] (first compound 0.015 µM, partner dose 0.0004 µM)	53%	103%	109%	215%	77%	133%	120%	90.1%
C[C@@H](N)c1ccc(C(=O)Nc2ccnc3[nH]ccc23)cc1 + CCCCCCCCc1ccc(CCC(N)(CO)CO)cc1 [fingolimod] (first compound 0.4 µM, partner dose 2 µM)	253%	206%	141%	116%	96.5%	90.9%	43.4%	91.2%
CCCCCCCCc1ccc(CCC(N)(CO)CO)cc1 [fingolimod] + Nc1ncn([C@H]2C[C@H](O)[C@@H](CO)O2)c(=O)n1 [decitabine] (first compound 2 µM, partner dose 0.1 µM)	37.1%	142%	172%	40.4%	108%	146%	86%	184%
C[C@@H](N)c1ccc(C(=O)Nc2ccnc3[nH]ccc23)cc1 + COc1ccc(Cl)c(Nc2nc3ccccc3nc2NS(=O)(=O)c2cccc(NC(=O)C(C)(C)N)c2)c1 [XL147] (first compound 0.4 µM, partner dose 0.8 µM)	272%	325%	130%	328%	188%	223%	75.3%	176%
C[C@@H](N)c1ccc(C(=O)Nc2ccnc3[nH]ccc23)cc1 + CC(=O)O[C@@]12CO[C@@H]1C[C@H](O)[C@@]1(C)C(=O)[C@H](O)C3=C(C)[C@@H](OC(=O)[C@H](O)[C@@H](NC(=O)OC(C)(C)C)c4ccccc4)C[C@@](O)([C@@H](OC(=O)c4ccccc4)[C@H]21)C3(C)C [Docetaxel] (first compound 0.4 µM, partner dose 0.0001 µM)	1410%	409%	131%	398%	453%	916%	242%	472%
NC(=O)c1ccc(N(C(N)=O)c2c(F)cccc2F)nc1-c1ccc(F)cc1F + C=C(c1ccc(C(=O)O)cc1)c1cc2c(cc1C)C(C)(C)CCC2(C)C [Bexarotene] (first compound 0.4 µM, partner dose 2 µM)	418%	73.9%	220%	107%	110%	121%	63.8%	113%
CC(=O)O[C@@]12CO[C@@H]1C[C@H](O)[C@@]1(C)C(=O)[C@H](O)C3=C(C)[C@@H](OC(=O)[C@H](O)[C@@H](NC(=O)OC(C)(C)C)c4ccccc4)C[C@@](O)([C@@H](OC(=O)c4ccccc4)[C@H]21)C3(C)C [Docetaxel] + Cn1nnc2c(C(N)=O)ncn2c1=O [temozolomide] (first compound 0.0001 µM, partner dose 2 µM)	679%	816%	276%	98.8%	261%	1120%	709%	369%
Cn1sc(=O)n(Cc2ccccc2)c1=O + CS(=O)(=O)CCNCc1ccc(-c2ccc3ncnc(Nc4ccc(OCc5cccc(F)c5)c(Cl)c4)c3c2)o1 [lapatinib] (first compound 0.4 µM, partner dose 0.8 µM)	136%	192%	108%	94.4%	78.6%	108%	57%	114%
CC1(C)CCC(c2ccc(Cl)cc2)=C(CN2CCN(c3ccc(C(=O)NS(=O)(=O)c4ccc(N[C@H](CCN5CCOCC5)CSc5ccccc5)c(S(=O)(=O)C(F)(F)F)c4)cc3)CC2)C1 + O=C(O)[C@@H]1[O][Sb](=[O])([O][Sb]2(=[O])[O][C@H]([C@H](O)CO)[C@H](O)[C@H](C(=O)O)[O]2)[O][C@H]([C@H](O)CO)[C@@H]1O [stibogluconate] (first compound 0.4 µM, partner dose 2 µM)	308%	226%	182%	62.4%	74.1%	120%	201%	122%
CC(=O)O[C@@]12CO[C@@H]1C[C@H](O)[C@@]1(C)C(=O)[C@H](O)C3=C(C)[C@@H](OC(=O)[C@H](O)[C@@H](NC(=O)OC(C)(C)C)c4ccccc4)C[C@@](O)([C@@H](OC(=O)c4ccccc4)[C@H]21)C3(C)C [Docetaxel] + CN1CCN(c2ccc3nc(-c4c(N)c5c(F)cccc5[nH]c4=O)[nH]c3c2)CC1 [Dovitinib] (first compound 0.0001 µM, partner dose 0.1 µM)	440%	748%	155%	121%	748%	1490%	762%	405%

Look-ups from the list:
Value for CC(=O)O[C@@]12CO[C@@H]1C[C@H](O)[C@@]1(C)C(=O)[C@H](O)C3=C(C)[C@@H](OC(=O)[C@H](O)[C@@H](NC(=O)OC(C)(C)C)c4ccccc4)C[C@@](O)([C@@H](OC(=O)c4ccccc4)[C@H]21)C3(C)C [Docetaxel] + Nc1ncn([C@H]2C[C@H](O)[C@@H](CO)O2)c(=O)n1 [decitabine] (first compound 0.0001 µM, partner dose 0.1 µM) under cleaved PARP positive nuclei fraction (RPMI7951): 103%
Value for CC(=O)O[C@@]12CO[C@@H]1C[C@H](O)[C@@]1(C)C(=O)[C@H](O)C3=C(C)[C@@H](OC(=O)[C@H](O)[C@@H](NC(=O)OC(C)(C)C)c4ccccc4)C[C@@](O)([C@@H](OC(=O)c4ccccc4)[C@H]21)C3(C)C [Docetaxel] + Cn1nnc2c(C(N)=O)ncn2c1=O [temozolomide] (first compound 0.0001 µM, partner dose 2 µM) under cleaved PARP positive nuclei fraction (MZ2-MEL): 679%
